Experimental data: US20060189530A1 (Bayer Corporation, priority 1996, published 2006)
For some assays here: At least one structure is not confirmed: it was looked up by name or label, or the drawing left a doubt. Some of these results come from one statement about several compounds together.

What was measured:
[1] = system: food intake of Wistar rats; test: In vivo feeding after ICV injection in rats; design: species or system rat; settings: 1-6 nmoles peptide, chow consumed in 2 hours
[2] = target: T1, rat NPY Y5 receptor (Y861 clone) (Rattus norvegicus, UniProt Q63634); test: [125I]PYY competition binding, rat Y5 Y861 clone transiently expressed in COS-7 membranes; design: expressed in transfected cells; host or cells: COS-7 (transient), membranes; settings: Y861 and Y555 vs 6B clone
T1 sequence (Q63634 1-445): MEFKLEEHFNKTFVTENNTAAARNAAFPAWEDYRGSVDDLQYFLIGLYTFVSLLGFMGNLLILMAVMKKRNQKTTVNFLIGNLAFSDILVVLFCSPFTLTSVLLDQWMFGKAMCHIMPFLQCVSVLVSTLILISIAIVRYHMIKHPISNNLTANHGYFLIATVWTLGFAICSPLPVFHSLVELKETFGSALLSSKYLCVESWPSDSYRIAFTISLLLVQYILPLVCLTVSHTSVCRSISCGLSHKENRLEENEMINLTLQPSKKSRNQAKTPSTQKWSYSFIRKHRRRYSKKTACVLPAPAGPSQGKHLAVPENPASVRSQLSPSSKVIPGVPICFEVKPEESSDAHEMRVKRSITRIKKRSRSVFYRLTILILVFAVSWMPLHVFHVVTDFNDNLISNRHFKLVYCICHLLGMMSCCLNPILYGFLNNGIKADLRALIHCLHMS

Molecule | Feeding [1] [g/2 h] | Fold lower affinity for Y861 and Y555 as compared to 6B [2]
CC[C@H](C)[C@H](NC(=O)[C@H](Cc1ccc(O)cc1)NC(=O)[C@H](CCCNC(=N)N)NC(=O)[C@H](CCCNC(=N)N)NC(=O)[C@H](CC(C)C)NC(=O)[C@H](CC(=O)O)NC(=O)[C@H](C)NC(=O)[C@H](C)NC(=O)[C@H](Cc1ccc(O)cc1)NC(=O)[C@H](CCC(N)=O)NC(=O)[C@H](C)NC(=O)[C@H](CCSC)NC(=O)[C@H](CCC(N)=O)NC(=O)[C@H](CCC(=O)O)NC(=O)[C@@H]1CCCN1C(=O)[C@@H](NC(=O)[C@H](C)NC(=O)[C@H](CC(N)=O)NC(=O)[C@H](CC(=O)O)NC(=O)CNC(=O)[C@@H]1CCCN1C(=O)[C@H](Cc1ccc(O)cc1)NC(=O)[C@@H](NC(=O)[C@@H]1CCCN1C(=O)[C@H](CCC(=O)O)NC(=O)[C@H](CC(C)C)NC(=O)[C@@H]1CCCN1C(=O)[C@H](C)N)C(C)C)[C@@H](C)O)C(=O)N[C@@H](CC(N)=O)C(=O)N[C@@H](CCSC)C(=O)N[C@@H](CC(C)C)C(=O)N[C@H](C(=O)N[C@@H](CCCNC(=N)N)C(=O)N1CCC[C@H]1C(=O)N[C@@H](CCCNC(=N)N)C(=O)N[C@@H](Cc1ccc(O)cc1)C(N)=O)[C@@H](C)O [hPP, pancreatic polypeptide] | >5 | –
(10-36)NPY [r/h(10-36)NPY] | – | 2- to 4 fold
